PMC12059159
No constants are given. Whether binding was seen depends on the method and setting. Binding seen in cells or lysates may run through a third protein. Some binding calls cover weakened binding; strength is not graded here. For some of these results: Sequences can lack the tags named with a protein.

T1: ATG9A (endogenous) (human (endogenous in HeLa)) (UniProt Q7Z3C6)
T1 sequence: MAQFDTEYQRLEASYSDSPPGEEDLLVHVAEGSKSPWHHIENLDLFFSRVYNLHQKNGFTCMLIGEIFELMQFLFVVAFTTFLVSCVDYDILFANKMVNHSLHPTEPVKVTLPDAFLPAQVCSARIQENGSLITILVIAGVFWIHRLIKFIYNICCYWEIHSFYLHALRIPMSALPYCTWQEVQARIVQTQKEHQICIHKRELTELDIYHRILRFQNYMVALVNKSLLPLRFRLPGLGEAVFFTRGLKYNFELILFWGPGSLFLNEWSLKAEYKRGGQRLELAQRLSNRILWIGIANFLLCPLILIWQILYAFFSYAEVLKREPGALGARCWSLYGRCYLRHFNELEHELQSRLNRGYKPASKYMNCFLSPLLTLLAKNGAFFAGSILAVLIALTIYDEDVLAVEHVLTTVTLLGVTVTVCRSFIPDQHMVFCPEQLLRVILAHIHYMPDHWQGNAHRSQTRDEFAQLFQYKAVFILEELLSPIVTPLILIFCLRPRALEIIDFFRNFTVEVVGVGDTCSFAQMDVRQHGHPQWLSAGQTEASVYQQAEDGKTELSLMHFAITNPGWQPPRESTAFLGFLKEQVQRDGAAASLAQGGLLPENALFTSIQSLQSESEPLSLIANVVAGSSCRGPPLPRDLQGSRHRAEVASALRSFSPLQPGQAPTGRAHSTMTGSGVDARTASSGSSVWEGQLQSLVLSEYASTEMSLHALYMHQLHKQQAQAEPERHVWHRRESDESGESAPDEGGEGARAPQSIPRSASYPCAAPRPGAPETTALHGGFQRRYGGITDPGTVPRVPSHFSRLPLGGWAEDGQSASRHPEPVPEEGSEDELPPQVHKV

T2: TMED10-GFP (UniProt P49755)
T2 sequence: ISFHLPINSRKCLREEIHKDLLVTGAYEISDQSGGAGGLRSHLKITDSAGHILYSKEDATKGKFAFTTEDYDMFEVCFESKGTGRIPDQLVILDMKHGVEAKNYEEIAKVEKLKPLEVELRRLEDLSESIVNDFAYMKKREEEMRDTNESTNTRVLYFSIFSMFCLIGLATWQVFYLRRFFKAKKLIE

T3: ATG9A-GFP (UniProt Q7Z3C6)
T3 sequence: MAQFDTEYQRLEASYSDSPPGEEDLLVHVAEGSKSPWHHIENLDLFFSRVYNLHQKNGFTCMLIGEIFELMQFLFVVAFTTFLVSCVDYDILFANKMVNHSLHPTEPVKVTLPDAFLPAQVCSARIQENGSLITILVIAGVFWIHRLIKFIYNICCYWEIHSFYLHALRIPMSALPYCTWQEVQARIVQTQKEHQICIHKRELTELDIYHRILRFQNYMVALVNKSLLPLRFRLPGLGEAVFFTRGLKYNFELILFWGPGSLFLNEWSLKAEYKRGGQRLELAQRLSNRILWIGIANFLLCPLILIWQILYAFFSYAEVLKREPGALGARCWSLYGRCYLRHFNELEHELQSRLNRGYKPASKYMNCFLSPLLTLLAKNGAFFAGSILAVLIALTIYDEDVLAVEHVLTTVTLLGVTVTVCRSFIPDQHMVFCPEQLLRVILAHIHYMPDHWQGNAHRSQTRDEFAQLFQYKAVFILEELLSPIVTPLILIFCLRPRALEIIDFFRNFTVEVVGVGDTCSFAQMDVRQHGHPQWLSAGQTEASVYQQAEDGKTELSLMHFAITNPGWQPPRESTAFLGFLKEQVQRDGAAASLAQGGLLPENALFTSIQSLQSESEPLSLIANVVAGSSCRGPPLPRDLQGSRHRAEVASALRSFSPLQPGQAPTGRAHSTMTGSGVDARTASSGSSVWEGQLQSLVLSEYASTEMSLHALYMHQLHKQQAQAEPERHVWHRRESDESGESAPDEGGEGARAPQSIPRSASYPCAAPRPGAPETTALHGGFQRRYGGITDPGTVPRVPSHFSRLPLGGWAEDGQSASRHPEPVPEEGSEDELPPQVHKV


Legend:
[1] = molecular target: T1, ATG9A (endogenous) (human (endogenous in HeLa)); assay: co-IP; endogenous ATG9A immunoprecipitated with an anti-ATG9A antibody and magnetic beads from lysates of HeLa cells expressing galectin-9-Myc; blot with anti-Myc and anti-ATG9A; normal conditions, 24-h DMEM starvation or PMA treatment; lysis in 50 mM Tris-HCl pH 7.4, 150 mM NaCl, 1 mM EDTA, 1% Triton X-100, 4 °C
TMED10-GFP = molecular target: T2, TMED10-GFP; assay: co-IP; GFP-Trap: galectin-9-Myc co-expressed with TMED10-GFP in HeLa cells; lysates precipitated with GFP-Nanoab-Agarose beads for 1 h at 4 °C; blot with anti-Myc and anti-GFP
ATG9A-GFP = molecular target: T3, ATG9A-GFP; assay: co-IP; galectin-9-Myc co-expressed with ATG9A-GFP or ATG9A (ΔN)-GFP in HeLa cells; lysates immunoprecipitated with an anti-GFP antibody and magnetic beads; blot with anti-Myc and anti-GFP; 50 mM Tris-HCl pH 7.4, 150 mM NaCl, 1 mM EDTA, 1% Triton X-100, 4 °C
GST-galectin-9 (human) = GST-galectin-9 (human) (UniProt O00182); assay: pull-down; purified GST or GST-galectin-9 on glutathione beads incubated with HeLa cell lysates at 4 °C, washed with 1x PBS; blot with anti-ATG9A and anti-GST; only the target purified

Molecule | binding [1] | binding (TMED10-GFP) | binding (ATG9A-GFP) | binding (GST-galectin-9 (human))
galectin-9-Myc (from UniProt O00182 1-355) | binds | binds | binds | –
ATG9A (endogenous) (protein, UniProt Q7Z3C6 1-839) MAQFDTEYQRLEASYSDSPPGEEDLLVHVAEGSKSPWHHIENLDLFFSRVYNLHQKNGFTCMLIGEIFELMQFLFVVAFTTFLVSCVDYDILFANKMVNHSLHPTEPVKVTLPDAFLPAQVCSARIQENGSLITILVIAGVFWIHRLIKFIYNICCYWEIHSFYLHALRIPMSALPYCTWQEVQARIVQTQKEHQICIHKRELTELDIYHRILRFQNYMVALVNKSLLPLRFRLPGLGEAVFFTRGLKYNFELILFWGPGSLFLNEWSLKAEYKRGGQRLELAQRLSNRILWIGIANFLLCPLILIWQILYAFFSYAEVLKREPGALGARCWSLYGRCYLRHFNELEHELQSRLNRGYKPASKYMNCFLSPLLTLLAKNGAFFAGSILAVLIALTIYDEDVLAVEHVLTTVTLLGVTVTVCRSFIPDQHMVFCPEQLLRVILAHIHYMPDHWQGNAHRSQTRDEFAQLFQYKAVFILEELLSPIVTPLILIFCLRPRALEIIDFFRNFTVEVVGVGDTCSFAQMDVRQHGHPQWLSAGQTEASVYQQAEDGKTELSLMHFAITNPGWQPPRESTAFLGFLKEQVQRDGAAASLAQGGLLPENALFTSIQSLQSESEPLSLIANVVAGSSCRGPPLPRDLQGSRHRAEVASALRSFSPLQPGQAPTGRAHSTMTGSGVDARTASSGSSVWEGQLQSLVLSEYASTEMSLHALYMHQLHKQQAQAEPERHVWHRRESDESGESAPDEGGEGARAPQSIPRSASYPCAAPRPGAPETTALHGGFQRRYGGITDPGTVPRVPSHFSRLPLGGWAEDGQSASRHPEPVPEEGSEDELPPQVHKV | – | – | – | binds
